One assay deals with TdPP1::GFP (durum wheat). The assay can be described thus: co-IP; GFP-Trap agarose beads precipitate TdPP1::GFP (or GFP alone) from extracts of co-infiltrated N. benthamiana leaves; 2 h at 4 °C, 0.2% Nonidet P-40, 150 mM NaCl, pH 7.5; anti-HA and anti-GFP blots.
A further assay concerns the target TdPP1-cYFP (durum wheat). The assay can be described thus: split reporter; BiFC with nYFP and cYFP fusions in N. benthamiana leaf epidermal cells, confocal microscopy two days after co-infiltration.

By UniProt entry, the sequences of proteins in these tests, tags left out. Where a name states a change or a piece, a line headed by the entry shows the natural chain unless it says otherwise.
UniProt A0A3B6PNT1: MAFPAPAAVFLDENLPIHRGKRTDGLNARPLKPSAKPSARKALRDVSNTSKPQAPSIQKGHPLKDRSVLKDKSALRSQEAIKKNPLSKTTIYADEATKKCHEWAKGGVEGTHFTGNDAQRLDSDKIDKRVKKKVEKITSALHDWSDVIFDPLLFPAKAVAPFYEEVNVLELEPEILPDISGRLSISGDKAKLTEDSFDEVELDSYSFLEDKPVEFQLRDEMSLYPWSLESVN

Results are given in words; binding and its absence hold for the method and conditions named. Binding seen in cells or lysates may run through a third protein. Binding can be weak; no strength is given. Sequences can lack the tags named with a protein.

Turning to TdRL1::HA (from UniProt A0A3B6PNT1), the binding entry with TdPP1::GFP (durum wheat) is reported as “binds”.

B1: At-I2-HA (protein, UniProt Q9LTK0 1-191)
chain: MTEPKRGRVQWDEANIVEIESNKPVRQKITEPKTPYHPMMDDDGSLSPRGRAFDECVDDMQRAEELRNVLNDAAASSSRNSSQGSGGGGWSSSDEEEEEADPMDQDEEGSGSGKNERFNAHRKAHYDEFRKVKELRSSGSFYEEEEEEDDGAKGSKSETTTNSRHTKGGNKELDATKTVSGTSSSSSPELI
Regarding B1, the binding entry with TdPP1::GFP (durum wheat) is recorded as “binds”.

B2: At-I2-nYFP (protein, UniProt Q9LTK0 1-191)
chain: B1 chain
With B2, the binding result in the assay with TdPP1-cYFP (durum wheat) is on record as “binds”.

These data come from PMC12109034.
